Results published in patent US9593305B2, “Differentiation of pluripotent stem cells” (Janssen Biotech, Inc., priority 2008, dated 2017).
Where “and” joins values, the source holds several entries; their conditions need not be identical. Identical values can stand only once. The name of at least one read-out is uncertain.

What was measured:
[1] = system: H1 human embryonic stem cells; assay: Analog screening with GDF-8 and growth factor/agonist pool (Example 8, Tables 7 and 8); assay type: cell-based
Experimental: Briefly, clusters of H1 human embryonic stem cells were grown on reduced growth factor […]™ (Invitrogen; Cat #356231)-coated tissue culture plastic. Cells were passaged using collagenase (Invitrogen; Cat #17104-019) treatment and gentle scraping, washed to remove residual enzyme, and plated with even dispersal at a ratio of 1:1 (surface area) on reduced growth factor […]™-coated 96-well black plates (Packard ViewPlates; PerkinElmer; Cat #6005182) using volumes of 100 μl/well. Cells were allowed to attach as clusters and then recover log phase growth over a 1 to 3 day period, feeding daily with MEF conditioned medium supplemented with 8 ng/ml bFGF (R&D Systems; Cat #233-FB). Plates were maintained at 37° C., 5% CO2 in a humidified box throughout the duration of assay. Growth factors purchased from R&D Systems were EGF (Cat #236-EG), FGF4 (Cat #235-F4), PDGF-A (Cat #221-AA), PDGF-D (Cat #1159-SB), PDGF-A/B (Cat #222-AB). […] Screening was conducted using a library of compounds that were made available as 5 mM stocks in 96-well plate format, solubilized in 100% DMSO (Sigma; Cat #D2650) and stored at −80° C. The compounds were further diluted to an intermediate concentration of 0.2 mM in 50 mM HEPES (Invitrogen; Cat #15630-080), 20% DMSO and stored at 4° C. Test conditions were performed in single wells, feeding on alternate days over a four-day assay period. Primary screening assays were initiated by aspirating culture medium from each well followed by three washes in PBS (Invitrogen; Cat #14190) to remove residual growth factors and serum. On the first day of assay, test volumes of 200 μl per well were added back containing DMEM:F12 base medium (Invitrogen; Cat #11330-032) supplemented with 0.5% FCS (HyClone; […] Cat #1324-WN) plus 2.5 μM compound. All remaining growth factors were tested at a final assay concentration of 50 ng/ml (EGF, FGF4, PDGF-A, PDGF-A/B, VEGF) with the exception of GDF-8 tested at 25 ng/ml. […] Cat #120-14). […] All remaining growth factors were tested at a final assay concentration of 50 ng/ml (EGF, FGF4, PDGF-A, PDGF-A/B, VEGF) with the exception of GDF-8 tested at 25 ng/ml. […] Cat #120-14). Negative control samples contained DMEM:F12 base medium supplemented with 2% FCS. […] At the conclusion of four-days of culture, assay plates were washed twice with PBS (Invitrogen; Cat #14190), fixed with 4% paraformaldehyde (Alexis Biochemical; Cat #ALX-350-011) at room temperature for 20 minutes, then washed three times with PBS and permeabilized with 0.5% Triton X-100 (Sigma; Cat #T8760-2) for 20 minutes at room temperature. Cells were washed again three times with PBS and blocked with 4% chicken serum (Invitrogen; Cat #16110082) in PBS for 30 minutes at room temperature. Primary antibody (goat anti-human SOX17; R&D Systems; Cat #AF1924) was diluted 1:100 in 4% chicken serum and added to each well for one hour at room temperature. Alexa Fluor 488 conjugated secondary antibody (chicken anti-goat IgG; Molecular Probes; Cat #AZ1467) was diluted 1:200 in PBS and added to each sample well after washing three times with PBS. To counterstain nuclei, 4 μg/ml Hoechst 33342 (Invitrogen; Cat #H3570) was added for ten minutes at room temperature. Plates were washed once with PBS and left in 100 μl/well PBS for imaging. Imaging was performed using an IN Cell Analyzer 1000 (GE Healthcare) utilizing the 51008bs dichroic for cells stained with Hoechst 33342 and Alexa Fluor 488. Exposure times were optimized from positive control wells and from untreated negative control wells stained with secondary antibody alone. Images from 15 fields per well were acquired to compensate for any cell loss during the bioassay and subsequent staining procedures. […] Segmentation for the nuclei was determined based on gray-scale levels (baseline range 100-300) and nuclear size. Averages and standard deviations were calculated for each replicate data set. […]

[2] = system: H1 human embryonic stem cells; assay: Primary screening: definitive endoderm differentiation in the absence of activin A, cell number and SOX17 (Example 3); assay type: cell-based; conditions: 2.5 μM compound, 20 ng/ml Wnt3a days 1-2, no activin A, four-day assay; for Cell Number: Average Total Cell Number: positive control 100 ng/ml activin A + Wnt3a
Experimental: Briefly, clusters of H1 human embryonic stem cells were grown on reduced growth factor […]™ (Invitrogen; Cat #1356231)-coated tissue culture plastic. Cells were passaged using collagenase (Invitrogen; Cat #17104-019) treatment and gentle scraping, washed to remove residual enzyme, and plated with even dispersal at a ratio of 1:1 (surface area) on reduced growth factor […]™-coated 96-well black plates (Packard ViewPlates; PerkinElmer; Cat #6005182) using volumes of 100 μl/well. Cells were allowed to attach as clusters and then recover log phase growth over a 1 to 3 day period, feeding daily with MEF conditioned medium supplemented with 8 ng/ml bFGF (R&D Systems; Cat #233-FB). Plates were maintained at 37° C., 5% CO2 in a humidified box throughout the duration of assay.
The compounds tested were made available as 5 mM stocks in 96-well plate format, solubilized in 100% DMSO (Sigma; Cat #D2650) and stored at −80° C. The library compounds were further diluted to an intermediate concentration of 0.2 mM in 50 mM HEPES (Invitrogen; Cat #15630-080), 20% DMSO and stored at 4° C. Test conditions were performed in triplicate, feeding on alternate days over a four-day assay period. Primary screening assays were initiated by aspirating culture medium from each well followed by three washes in PBS (Invitrogen; Cat #14190) to remove residual growth factors and serum. On the first day of assay, test volumes of 200 μl per well were added back containing DMEM:F12 base medium (Invitrogen; Cat #11330-032) supplemented with 0.5% FCS (HyClone; Cat #SH30070.03) and 20 ng/ml Wnt3a (R&D Systems; Cat #1324-WN) plus 2.5 μM test compound. On the third day of assay, test volumes of 200 μl per well were added back containing DMEM:F12 base medium supplemented with 2% FCS plus 2.5 μM test compound, without Wnt3a. Positive control samples contained the same base medium supplemented with FCS, substituting 100 ng/ml recombinant human activin A (PeproTech; Cat #120-14) for the test compound throughout the four-day assay along with Wnt3a (20 ng/ml) added only on days 1 and 2. Negative control samples contained DMEM:F12 base medium supplemented with FCS, adding Wnt3a on days 1 and 2 but omitting activin A.
At the conclusion of four-days of culture, assay plates were washed twice with PBS (Invitrogen; Cat #14190), fixed with 4% paraformaldehyde (Alexis Biochemical; Cat #ALX-350-011) at room temperature for 20 minutes, then washed three times with PBS and permeabilized with 0.5% Triton X-100 (Sigma; Cat #T8760-2) for 20 minutes at room temperature. Cells were washed again three times with PBS and blocked with 4% chicken serum (Invitrogen; Cat #16110082) in PBS for 30 minutes at room temperature. Primary antibody (goat anti-human SOX17; R&D Systems; Cat #AF1924) was diluted 1:100 in 4% chicken serum and added to each well for one hour at room temperature. Alexa Fluor 488 conjugated secondary antibody (chicken anti-goat IgG; Molecular Probes; Cat #AZ1467) was diluted 1:200 in PBS and added to each sample well after washing three times with PBS. To counter stain nuclei, 4 μg/ml Hoechst 33342 (Invitrogen; Cat #H3570) was added for ten minutes at room temperature. Plates were washed once with PBS and left in 100 μl/well PBS for imaging.
Imaging was performed using an IN Cell Analyzer 1000 (GE Healthcare) utilizing the 51008bs dichroic for cells stained with Hoechst 33342 and Alexa Fluor 488. Exposure times were optimized from positive control wells and from untreated negative control wells stained with secondary antibody alone. Images from 15 fields per well were acquired to compensate for any cell loss during the bioassay and subsequent staining procedures. Measurements for total cell number and total SOX17 intensity were obtained from each well using IN Cell Developer Toolbox 1.7 (GE Healthcare) software. Segmentation for the nuclei was determined based on gray-scale levels (baseline range 100-300) and nuclear size. […]

[3] = Plate 1, compound + EGF, FGF, PDGF-A, VEGF, PDGF-D, muscimol, GDF8
[4] = Plate 1, compound + EGF, FGF, PDGF-A, VEGF, PDGF-D, muscimol, GDF8, positive control Activin A/Wnt3a
[5] = Table 8: hits with greater than 25% activity of the positive control, with GDF-8 and growth factors/agonists

Row | Compound | Cell Number Average Total Cell Number [1, 3] | Cell Number % of positive control [1, 4] | Cell Number % of positive control [1, 5] | Sox17 Expression % of positive control [1, 5] | Sox17 Expression Average Total Intensity [1, 5] | further results
1 | O=C1CCN2CCN(CC2)Cc2cccc(c2)Nc2ncnc(n2)-c2ccnc(c2)NCCCN1 [Compound 13, 1,8,10,12,17,19,23,27,33-Nonaazapentacyclo[25.2.2.1˜3,7˜0.1˜9.13˜1˜14.18˜]tetratriaconta-3(34), 4,6,9(33), 10,12,14(32), 15,17-nonaen-24-one] | 11491 and 7045 | 85.8 % of positive control and 52.6 % of positive control | 85.8 % of positive control and 52.6 % of positive control | – | – | –
2 | C=CCN1CC(=O)NCCCc2cncc(c2)-c2ncnc(n2)Nc2cccc(c2)C1 [Compound 40, 14-Prop-2-en-1-yl-3,5,7,14,17,23,27-heptaazatetracyclo[19.3.1.1˜2.6˜0.1˜8,12˜]heptacosa-1(25), 2(27), 3,5,8(26), 9,11,21,23-nonaen-16-one] | – | – | – | – | – | Cell Number: Average Total Cell Number [2]: 5817 and 8104
3 | O=C1CCN2CCN(CC2)Cc2cc(Cl)cc(c2)Nc2ncnc(n2)-c2ccc(F)c(c2)CCCN1 [Compound 24, 5-Chloro-17-fluoro-1,8,10,12,22,26,32-heptaazapentacyclo[24.2.2.1˜3,7˜0.1˜9,13˜0.1˜14,18˜]tritriaconta-3(33), 4,6,9(32), 10,12,14(31), 15,17-nonaen-23-one] | – | – | – | – | – | Cell Number: % of positive control [2]: 42.09 % of positive control and 57.30 % of positive control; Cell Number: Average Total Cell Number [2]: 4470 and 6085
4 | O=C1NCCCc2cncc(c2)-c2ncnc(n2)Nc2cccc(c2)CN2CCCC1C2 (centres unmarked) [Compound 17, 3,5,7,14,20,26,31-Heptaazapentacyclo[22.3.1.1-2,6˜1˜8,12˜1˜14,18˜]hentriaconta-1(28), 2(31), 3,5,8(30), 9,11,24,26-nonaen-19-one] | 6994 and 7988 | 52.2 % of positive control and 59.6 % of positive control | 52.2 % of positive control and 59.6 % of positive control | 31.0 % of positive control and 45.0 % of positive control | 7.76E+07 and 1.13E+08 | Sox17 Expression Average Total Intensity [1, 3]: 7.76E+07 and 1.13E+08; Sox17 Expression % of positive control [1, 4]: 31.0 % of positive control and 45.0 % of positive control
5 | CCN1CC(=O)NCCCc2cc(ccn2)-c2ncnc(n2)Nc2cc(Cl)cc(c2)C1 [Compound 14, 10-Chloro-14-ethyl-3,5,7,14,17,22,27-heptaazatetracyclo[19.3.1.1˜2,6˜1˜8,12˜]heptacosa-1(25), 2(27), 3,5,8(26), 9,11,21,23-nonaen-16-one] | – | – | 57.0 % of positive control and 53.5 % of positive control | – | – | Cell Number Average Total Cell Number ([1]; Plate 2, compound + EGF, FGF, PDGF-A, VEGF, PDGF-D, muscimol, GDF8): 9008 and 8464; Cell Number % of positive control ([1]; Plate 2, compound + EGF, FGF, PDGF-A, VEGF, PDGF-D, muscimol, GDF8, positive control Activin A/Wnt3a): 57.0 % of positive control and 53.5 % of positive control
6 | CCN1CC(=O)NCCCc2cccc(c2)-c2ncnc(n2)Nc2cc(Cl)cc(c2)C1 [Compound 16, 10-Chloro-14-ethyl-3,5,7,14,17,27-hexaazatetracyclo[19.3.1.1˜2,6˜1˜8,12˜]heptacosa-1(25), 2(27), 3,5,8(26), 9,11,21,23-nonaen-16-one] | 5498 and 8303 | 41.1 % of positive control and 62.0 % of positive control | 57.3 % of positive control and 62.0 % of positive control | 51.8 % of positive control and 36.7 % of positive control | 1.48E+08 and 9.20E+07 | Sox17 Expression Average Total Intensity [1, 3]: 6.56E+07 and 9.20E+07; Sox17 Expression % of positive control [1, 4]: 26.2 % of positive control and 36.7 % of positive control
7 | CN1CCCC(=O)NCCCc2cncc(c2)-c2ncnc(n2)Nc2cccc(c2)C1 [Compound 20, 14-Methyl-3,5,7,14,19,25,29-heptaazatetracyclo[21.3.1.1˜2,6˜0.1˜8,12˜]nonacosa-1(27), 2(29), 3,5,8(28), 9,11,23,25-nonaen-18-one] | – | – | 46.5 % of positive control and 70.4 % of positive control | 31.2 % of positive control and 59.1 % of positive control | 8.90E+07 and 1.48E+08 | –
